The source of these data is patent US20090191181A1.

No constants are given. Whether binding was seen depends on the method and setting. In cells and extracts the contact can be indirect. Some results given as binding are weak or reduced against the parent protein; the word gives no strength. For some assays here: Where a sequence is shown, tags or fusion partners need not be part of it.

The target of experiment [1] is T1, RB1 (endogenous, in lysates of HepG2 or HCT116 cells) (human) (UniProt P06400).
T1 sequence: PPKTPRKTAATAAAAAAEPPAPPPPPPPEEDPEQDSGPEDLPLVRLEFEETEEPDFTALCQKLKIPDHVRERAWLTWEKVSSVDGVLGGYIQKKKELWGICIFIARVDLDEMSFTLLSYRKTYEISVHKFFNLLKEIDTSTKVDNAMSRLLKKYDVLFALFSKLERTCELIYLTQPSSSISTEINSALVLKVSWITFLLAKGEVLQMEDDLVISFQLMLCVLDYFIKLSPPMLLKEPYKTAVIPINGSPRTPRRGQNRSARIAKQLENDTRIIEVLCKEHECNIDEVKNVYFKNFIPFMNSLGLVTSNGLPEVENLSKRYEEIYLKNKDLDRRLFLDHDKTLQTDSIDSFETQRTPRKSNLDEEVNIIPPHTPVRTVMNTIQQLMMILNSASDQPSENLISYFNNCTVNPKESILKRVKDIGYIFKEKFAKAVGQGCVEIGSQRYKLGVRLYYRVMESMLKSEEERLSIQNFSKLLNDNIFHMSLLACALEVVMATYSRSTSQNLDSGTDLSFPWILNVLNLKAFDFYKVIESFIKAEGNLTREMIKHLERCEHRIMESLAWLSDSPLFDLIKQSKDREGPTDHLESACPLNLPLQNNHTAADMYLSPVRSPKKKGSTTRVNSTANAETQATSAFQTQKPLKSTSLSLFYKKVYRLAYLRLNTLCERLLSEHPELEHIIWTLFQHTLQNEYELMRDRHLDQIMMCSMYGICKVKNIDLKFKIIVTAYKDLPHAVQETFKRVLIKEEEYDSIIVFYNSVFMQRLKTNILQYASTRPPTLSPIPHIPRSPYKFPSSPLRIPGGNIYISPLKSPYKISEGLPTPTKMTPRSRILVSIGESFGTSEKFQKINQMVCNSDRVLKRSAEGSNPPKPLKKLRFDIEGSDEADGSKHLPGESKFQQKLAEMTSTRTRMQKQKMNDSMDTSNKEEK
As to the kind of experiment: co-immunoprecipitation of endogenous proteins, immunoblot (FIG. 2a).

Experiment [2] addresses T2, Flag-tagged RB1 C-terminal substrate domain (codons 772-928) (Homo sapiens (Human)) (UniProt P06400).
T2 sequence: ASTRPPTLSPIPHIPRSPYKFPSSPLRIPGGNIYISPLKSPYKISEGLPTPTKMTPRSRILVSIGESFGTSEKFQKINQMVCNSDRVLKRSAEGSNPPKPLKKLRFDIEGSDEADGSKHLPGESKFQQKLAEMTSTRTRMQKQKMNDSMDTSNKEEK
Kind of experiment: co-immunoprecipitation with anti-Flag antibody from HEK293 cells (FIG. 2b).

B1: SMYD3 (endogenous, in lysates of HepG2 or HCT116 cells) (enzyme)
chain: MEPLKVEKFATANRGNGLRAVTPLRPGELLFRSDPLAYTVCKGSRGVVCDRCLLGKEKLMRCSQCRVAKYCSAKCQKKAWPDHKRECKCLKSCKPRYPPDSVRLLGRVVFKLMDGAPSESEKLYSFYDLESNINKLTEDKKEGLRQLVMTFQHFMREEIQDASQLPPAFDLFEAFAKVICNSFTICNAEMQEVGVGLYPSISLLNHSCDPNCSIVFNGPHLLLRAVRDIEVGEELTICYLDMLMTSEERRKQLRDQYCFECDCFRCQTQDKDADMLTGDEQVWKEVQESLKKIEELKAHWKWEQVLAMCQAIISSNSERLPDINIYQLKVLDCAMDACINLGLLEEALFYGTRTMEPYRIFFPGSHPVRGVQVMKVGKLQLHQGMFPQAMKNLRLAFDIMRVTHGREHSLIEDLILLLEECDANIRAS
On to B1, for which the binding result in experiment [1] was “binds”.

B2: HA-tagged SMYD3 (wild type) (enzyme, not shown: small tags and cut ends)
chain: B1 chain
On to B2, for which, in experiment [2], the binding entry is “binds”.
